Structures can show the parent of a compound that is named as a salt. The list shows a part of the results. Repeats are few or missing, and single values can be far off.

The experiment relates to Reh. The experiment is described as follows: S-phase gammaH2AX median, Z-score vs plate median (drug alone); higher = more S-phase DNA damage. Conditions: MK1775 concentration 0 nM; 10 µM; 4 h.
Turning to `CCCCCCCCCCCCC/C=C/[C@@H](O)[C@@H](N)CO` [Sphingosine], the “S-phase gammaH2AX median (Z-score)” value was 0.0267.
As for `Cc1cc(N)c2ccccc2[n+]1CCCCCCCCCC[n+]1c(C)cc(N)c2ccccc21` [Dequalinium dichloride], the figure is 0.0535; as for `Nc1c2c(nc3ccccc13)CCCC2O` (centres undefined) [Hydroxytacrine maleate], 0.0945; as for `CCN(CC)CCCCCCCCOC(=O)c1cc(OC)c(OC)c(OC)c1` [TMB-8 hydrochloride], 0.287.
To `N#CC(C#N)=C(N)/C(C#N)=C/c1cc(O)c(O)c(O)c1` [Tyrphostin 51] belongs 0.327; to `Cn1ccc2cc3c(cc21)CCN3C(=O)Nc1cccnc1`, -0.521.
Take `O=C(O)CP(=O)(O)O` [Phosphonoacetic acid]: the “S-phase gammaH2AX median (Z-score)” value is -0.0686.
Take `NCCNC(=O)c1ccc(Cl)cc1` [Ro 16-6491 hydrochloride]: the “S-phase gammaH2AX median (Z-score)” value was -0.1.
For `O=C(c1ccccc1)c1ccc2n1CCC2C(=O)O` (centres undefined) [Ketorolac tris salt], the “S-phase gammaH2AX median (Z-score)” value was -0.0157.
To `CNC(=O)[C@H]1O[C@@H](n2cnc3c(NCc4cccc(I)c4)nc(Cl)nc32)[C@H](O)[C@@H]1O` [Chloro-IB-MECA] belongs -0.0504; to `CCN(CC)CCCC(C)Nc1nc(C)cc(Nc2ccc3nc(C)cc(N)c3c2)n1` (centres undefined), 0.0336; to `CC(C)(C)NCC(O)COc1cccc2[nH]c(=O)[nH]c12` (centres undefined), -0.0485.
As for `O=C1NC(=O)C(c2ccccc2)(c2ccccc2)N1` [5,5-Diphenylhydantoin], the figure is 0.0819; as for `CN1Cc2c(N)cccc2C(c2ccccc2)C1` (centres undefined) [Nomifensine maleate], -0.0781; as for `CN(C)C/C=C/C(=O)Nc1cc2c(Nc3ccc(F)c(Cl)c3)ncnc2cc1O[C@H]1CCOC1` [Afatinib (BIBW2992)], -0.000387.
Regarding `COc1cccc(C(=O)NCCN2CCN(c3ccc(Cl)cc3)CC2)c1`, the “S-phase gammaH2AX median (Z-score)” value came out at 0.00194.
Turning to `NC(=O)c1cccc(N)c1` [3-aminobenzamide], the “S-phase gammaH2AX median (Z-score)” value is -0.033.
As for `Cc1ccc(-n2nc(C(C)(C)C)cc2NC(=O)Nc2ccc(OCCN3CCOCC3)c3ccccc23)cc1` [BIRB 796 (Doramapimod)], the figure is -0.0445.
To `CNC(=O)c1ccc(C)c(-n2c(C)cc(OCc3ccc(F)cc3F)c(Br)c2=O)c1` belongs -0.00889; to `CCCN(CCc1ccccc1)C1CCc2c(O)cccc2C1` (centres undefined) [(?)-PPHT hydrochloride], 0.0331; to `CNC(=N)NCCC[C@H](N)C(=O)O` [NG-Monomethyl-L-arginine acetate], 0.111.
Regarding `O=C(O)C1=CCCN(CCON=C(c2ccccc2)c2ccccc2)C1` [NO-711 hydrochloride], the “S-phase gammaH2AX median (Z-score)” value is -0.128.
For the compound `N#C/C(=C\c1ccc(O)c(O)c1)C(=O)NCc1ccccc1` [Tyrphostin AG 490], the “S-phase gammaH2AX median (Z-score)” value stood at 0.147.
To `C#CCn1c(=O)c2c(ncn2C)n(C)c1=O` [3,7-Dimethyl-I-propargylxanthine] belongs 0.132; to `Oc1cccc(-c2nc(N3CCOCC3)c3oc4ncccc4c3n2)c1`, -0.192; to `CCN(CC)CCCCNc1ncc2cc(-c3cc(OC)cc(OC)c3)c(NC(=O)NC(C)(C)C)nc2n1`, 0.0236.
Turning to `CN(C)CCC(c1ccc(Br)cc1)c1ccccn1` (single isomer, unassigned; (+)) [(+)-Brompheniramine maleate], the “S-phase gammaH2AX median (Z-score)” value was -0.068.
To `CC(C)C[C@H](NC(=O)CNC(=O)c1cc(Cl)ccc1Cl)B1OC(=O)C(CC(=O)O)(CC(=O)O)O1` belongs -0.139.
Turning to `CC(N)(Cc1ccc(O)c(O)c1)C(=O)O` (racemic) [(?)-3-(3,4-dihydroxyphenyl)-2-methyl-DL-alanine], the “S-phase gammaH2AX median (Z-score)” value was 0.18.
As for `CCCCNc1c(C(=O)OCC)c(C)nc2c1cnn2CC` [Tracazolate], the “S-phase gammaH2AX median (Z-score)” value was -0.0868.
For the compound `CC(C)c1ccc(Cn2ccc3c4c(N)nc(NC5CC5)nc4ccc32)cc1`, the “S-phase gammaH2AX median (Z-score)” value was -0.0777.
Take `COc1cc(-c2ccc(=O)[nH]n2)ccc1OC(F)F` [Zardaverine]: the “S-phase gammaH2AX median (Z-score)” value was -0.714.
With `Cc1ccc([N+](=O)[O-])cc1S(=O)(=O)N(C)/N=C/c1cnc2ccc(Br)cn12`, the “S-phase gammaH2AX median (Z-score)” value is 0.0182.
As for `O=C(Nc1cc(C(=O)Nc2ccc(S(=O)(=O)O)cc2S(=O)(=O)O)cc(C(=O)Nc2ccc(S(=O)(=O)O)cc2S(=O)(=O)O)c1)Nc1cc(C(=O)Nc2ccc(S(=O)(=O)O)cc2S(=O)(=O)O)cc(C(=O)Nc2ccc(S(=O)(=O)O)cc2S(=O)(=O)O)c1` [NF449 octasodium salt], the figure is -0.0568.
As for `CCCCCCCc1ccc(CCc2cccc(O)c2C(=O)O)cc1`, the “S-phase gammaH2AX median (Z-score)” value was 0.0878.
In the case of `CC(N)=NCCC[C@H](N)C(=O)O` [L-N5-(1-Iminoethyl)ornithine hydrochloride], the “S-phase gammaH2AX median (Z-score)” value was found to be 0.205.
As for `CC[N+](CC)(CC)CC(=O)Nc1c(C)cccc1C` [Lidocaine N-ethyl bromide quaternary salt], the figure is -0.0355; as for `NCCNS(=O)(=O)c1cccc2cnccc12` [H-9 dihydrochloride], -0.109.
To `NC(N)=Nc1nc(CSCC/C(N)=N/S(N)(=O)=O)cs1` [Famotidine] belongs -0.0283.
As for `Nc1nc(OCc2ccccc2)c2nc[nH]c2n1` [O6-benzylguanine], the figure is 0.068; as for `CC1=C(/C=C/C(C)=C/C=C/C(C)=C\C(=O)O)C(C)(C)CCC1` [13-cis-retinoic acid], 0.0142; as for `CSc1ccc2c(c1)N(CCC1CCCCN1C)c1ccccc1S2` (centres undefined) [Thioridazine hydrochloride], -1.15.
Consider `NC1C=CC=C(C(=O)O)C1` (centres undefined) [Gabaculine hydrochloride], for which the “S-phase gammaH2AX median (Z-score)” value is 0.0291.
In the case of `CC(C)(Sc1ccc(CCN(CCCCC2CCCCC2)C(=O)NC2CCCCC2)cc1)C(=O)O`, the “S-phase gammaH2AX median (Z-score)” value was 0.0535.
To `OC(CN1CCN(c2cccc(Cl)c2)CC1)C(c1ccccc1)c1ccccc1` (centres undefined) belongs 0.0175; to `COc1ccc(-c2ccc3c(N4CCOCC4)nc(N4C[C@@H](C)O[C@@H](C)C4)nc3n2)cc1CO`, -0.146.
To `Nc1ccc(CCNc2ncnc3c2ncn3C2OC(CO)C(O)C2O)cc1` (centres undefined) [N6-2-(4-Aminophenyl)ethyladenosine] belongs -0.0757.
`OCC1OC(n2cnc3c(NCCc4ccccc4)ncnc32)C(O)C1O` (centres undefined) [N6-2-Phenylethyladenosine]: the “S-phase gammaH2AX median (Z-score)” value is -0.052.
To `OC[C@H]1O[C@@H](n2cnc3c(Nc4ccccc4)ncnc32)[C@H](O)[C@@H]1O` [N6-Phenyladenosine] belongs -0.102; to `CCN1CCc2nc(N)oc2CC1` [B-HT 933 dihydrochloride], 0.107; to `C[N+](C)(C)CCOC(=O)CCC(=O)OCC[N+](C)(C)C` [Succinylcholine chloride], -0.0133.
To `CC(Cc1ccc(O)c(O)c1)(NN)C(=O)O` (stereo not drawn) [S-(-)-Carbidopa] belongs -0.00388; to `CN(C)c1ccc(O)c2c1C[C@H]1C[C@H]3[C@H](N(C)C)C(O)=C(C(N)=O)C(=O)[C@@]3(O)C(O)=C1C2=O` [Minocycline hydrochloride], -0.116; to `CN(Cc1cnc2nc(N)nc(N)c2n1)c1ccc(C(=O)N[C@@H](CCC(=O)O)C(=O)O)cc1` [Abitrexate (Methotrexate)], -0.00271.
To `CN(Cc1cnc2nc(N)nc(N)c2n1)c1ccc(C(=O)N[C@@H](CCC(=O)O)C(=O)O)cc1` [(-)Amethopterin] belongs 0.0291; to `CN(Cc1cnc2nc(N)nc(N)c2n1)c1ccc(C(=O)N[C@@H](CCC(=O)O)C(=O)O)cc1` [Methotrexate], 1.33.
Turning to `COc1cc2c(CCNC(C)=O)c[nH]c2cc1Cl` [6-Chloromelatonin], the “S-phase gammaH2AX median (Z-score)” value amounted to 0.0563.
Take `Cc1ccc(S(=O)(=O)NC(=O)NN2CCCCCC2)cc1` [Tolazamide]: the “S-phase gammaH2AX median (Z-score)” value is -0.1.
To `C=CCn1c(=O)c2c(nc(-c3ccc(S(=O)(=O)O)cc3)n2C)n(C)c1=O` [1-Allyl-3,7-dimethyl-8-p-sulfophenylxanthine] belongs 0.0816; to `Nc1ccn([C@@H]2O[C@H](CO)[C@@H](O)[C@@H]2O)c(=O)n1` [Cytosine-1-beta-D-arabinofuranoside hydrochloride], 6.82; to `Nc1ccn([C@@H]2O[C@H](CO)[C@@H](O)[C@@H]2O)c(=O)n1` [Cytarabine], 5.29.
To `Nc1ncnc2c1ncn2C1CCCO1` (centres undefined) belongs -0.407; to `Cc1[nH]c2ccccc2c1CCNCc1ccc(/C=C/C(=O)NO)cc1` [Panobinostat], 2.8.
For `N[C@@H](Cc1ccc(O)c(I)c1)C(=O)O` [3-Iodo-L-tyrosine], the “S-phase gammaH2AX median (Z-score)” value is 0.12.
`CC(C)Cn1c(=O)n(C)c(=O)c2[nH]cnc21` [3-Isobutyl-1-methylxanthine]: the “S-phase gammaH2AX median (Z-score)” value was found to be 0.198.
In the case of `CCCCOc1cc(CC2CNC(=O)N2)ccc1OC` (centres undefined), the “S-phase gammaH2AX median (Z-score)” value is -0.0563.
Regarding `Nc1ccc(C(=O)Nc2cccc(-c3nc(N4CCOCC4)c4oc5ncccc5c4n3)c2)cn1`, the “S-phase gammaH2AX median (Z-score)” value was -0.0986.
In the case of `CN(C)CCCN1c2ccccc2Sc2ccc(Cl)cc21` [Chlorpromazine hydrochloride], the “S-phase gammaH2AX median (Z-score)” value turned out to be 0.0563.
As for `Cc1nc(-c2ccc(OCC(C)C)c(C#N)c2)sc1C(=O)O` [Febuxostat (Uloric)], the “S-phase gammaH2AX median (Z-score)” value was 0.0352.
To `CC(C)c1ccc2c(c1)c(SC(C)(C)C)c(CC(C)(C)C(=O)O)n2Cc1ccc(Cl)cc1` belongs 0.00473; to `Cc1nc(Nc2ncc(C(=O)Nc3c(C)cccc3Cl)s2)cc(N2CCN(CCO)CC2)n1`, 0.482.
As for `CCN1CCN(Cc2ccc(-c3cc4c(N[C@H](C)c5ccccc5)ncnc4[nH]3)cc2)CC1`, the figure is -0.00425; as for `CC(C)(C)c1ccc(C(O)CCCN2CCC(C(O)(c3ccccc3)c3ccccc3)CC2)cc1` (centres undefined) [Terfenadine], -0.834.
As for `C=C1/C(=C\C=C2/CCC[C@]3(C)[C@@H]([C@H](C)/C=C/[C@H](C)C(C)C)CC[C@@H]23)C[C@@H](O)C[C@@H]1O` [Doxercalciferol (Hectorol)], the figure is 0.116; as for `CC(C)(C)NCC(O)c1cc(O)cc(O)c1` (centres undefined) [Terbutaline hemisulfate], 0.487; as for `CC[N+](CC)(CC)CCOc1cccc(OCC[N+](CC)(CC)CC)c1OCC[N+](CC)(CC)CC` [Gallamine triethiodide], 0.0189.
In the case of `CCOC(=O)[N-]c1c[n+](N2CCOCC2)no1` [Molsidomine], the “S-phase gammaH2AX median (Z-score)” value is -0.281.
In the case of `CC/C(=C(\c1ccccc1)c1ccc(OCCN(C)C)cc1)c1ccccc1` [Tamoxifen citrate], the “S-phase gammaH2AX median (Z-score)” value is -0.1.
For the compound `CC/C(=C(\c1ccccc1)c1ccc(OCCN(C)C)cc1)c1ccccc1` [Tamoxifen Citrate (Nolvadex)], the “S-phase gammaH2AX median (Z-score)” value was -0.0437.
